From patent US20260374739A1, “SMALL MOLECULAR WEIGHT CHEMICAL COMPOUND TO ANTAGONIZE EPH-EPHRIN TETRAMERIZATION AND INHIBIT BIDIRECTIONAL SIGNALING” (THE BOARD OF REGENTS OF THE UNIVERSITY OF TEXAS SYSTEM, priority 2022, published 2026)
For some assays here: Part of at least one peptide drawing is inferred or uncertain, most often the ends. For some assays here: At least one read-out could not be matched to a standard name with certainty. Ends that are not written are not given here.

How the values were obtained:
EphA3-EphrinA1 = biological target: T1, EphA3-EphrinA1 (Homo sapiens, UniProt P29320); experiment: Octet, immobilized human EphA3 binding to human EphrinA1; settings: 50 nM soluble human EphrinA1
T1 sequence (P29320 21-541 limits assumed): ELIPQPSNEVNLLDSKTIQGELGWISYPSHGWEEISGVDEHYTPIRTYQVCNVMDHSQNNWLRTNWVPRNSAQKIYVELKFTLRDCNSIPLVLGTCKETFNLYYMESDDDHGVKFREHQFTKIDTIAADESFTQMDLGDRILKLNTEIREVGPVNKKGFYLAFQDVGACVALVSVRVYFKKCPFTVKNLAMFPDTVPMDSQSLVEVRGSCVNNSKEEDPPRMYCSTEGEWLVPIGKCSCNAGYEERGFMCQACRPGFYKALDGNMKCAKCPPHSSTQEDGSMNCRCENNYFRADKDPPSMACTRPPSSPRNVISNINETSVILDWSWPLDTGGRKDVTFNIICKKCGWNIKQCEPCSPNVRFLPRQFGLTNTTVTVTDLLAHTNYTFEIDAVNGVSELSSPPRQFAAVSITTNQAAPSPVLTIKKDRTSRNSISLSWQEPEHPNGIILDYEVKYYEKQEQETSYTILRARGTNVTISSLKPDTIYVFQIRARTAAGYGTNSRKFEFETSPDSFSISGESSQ
Procedure: The Octet system was used to probe the interactions of epitope-tagged human A class proteins, focusing on immobilized EphA3 binding to two of its cognate ligands, EphrinA1 and EphrinA5, as well as EphB2 binding to EphrinA5 (FIG. 27). […] Focusing on the dimerization-driven EphA3-EA5 interaction first (green sensorgram trace), which mimics what is disclosed above for EphB4-EB2, the initial binding of soluble EphrinA5 to the immobilized EphA3 is very fast and strong with a long and steep 84° slope of response that then quickly bends around 35 sec into the association step to form a more gradual tetramerization accumulation slope. […] However, again like the EphB4-EB2 interaction, once placed into dissociation, a significant fraction of the bound EA5 protein melts quickly and the off phase continues downward with a slow gradual decline in bound protein. Although the dissociation was for only 500 sec, the continued downward slope of the response indicates most of the bound EA5 protein would eventually melt off of the immobilized EphA3 protein. This is referred to as a classic dimerization-driven interaction, fast and strong initial binding in the association step but with most of the bound protein coming off in the dissociation due to lack of formation of stable tetramers. EphA3 interacts with EphrinA1 with totally different kinetics/dynamics (orange sensorgram trace). […]

EphB4-EphrinB2 = biological target: T2, EphB4-EphrinB2 (Mus musculus, UniProt P54761); experiment: Octet RED384, immobilized mouse EphB4-Fc binding to mouse EB2-His
T2 construct: biosensor immobilized rodent EphB1-Fc and EphB4-Fc ectodomain proteins; mouse EB2-His residues 18-232; purchased R&D Systems (EphB-Fc); Sino Biologicals (EphrinB-His)
T2 sequence (P54761 16-539 limits assumed): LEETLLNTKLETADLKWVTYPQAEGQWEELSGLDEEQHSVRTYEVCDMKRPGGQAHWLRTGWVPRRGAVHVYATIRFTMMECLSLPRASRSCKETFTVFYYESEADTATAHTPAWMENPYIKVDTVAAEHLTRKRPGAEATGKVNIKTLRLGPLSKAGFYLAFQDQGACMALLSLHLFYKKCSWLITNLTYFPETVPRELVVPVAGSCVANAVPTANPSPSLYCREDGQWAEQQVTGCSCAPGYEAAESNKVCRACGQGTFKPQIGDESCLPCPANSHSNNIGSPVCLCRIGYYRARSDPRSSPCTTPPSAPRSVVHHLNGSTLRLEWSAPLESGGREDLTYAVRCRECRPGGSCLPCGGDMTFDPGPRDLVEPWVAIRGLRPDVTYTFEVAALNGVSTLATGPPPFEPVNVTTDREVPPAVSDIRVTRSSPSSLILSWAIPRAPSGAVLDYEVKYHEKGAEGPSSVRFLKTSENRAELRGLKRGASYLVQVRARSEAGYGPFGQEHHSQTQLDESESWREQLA
Procedure: […] Association time was for 400 sec and dissociation time was for 500 sec. Binding assays were conducted in PBS containing 0.05% Tween-20 and 1% DMSO.

EphrinB2-EphB2 = biological target: T3, EphrinB2-EphB2 (Homo sapiens, UniProt P29323); experiment: Octet tetramerization inhibition, immobilized human EphrinB2 binding to 50 nM soluble human EphB2; settings: peptides up to 400 μM
T3 construct: soluble human EphB1-His, EphB2-His, and EphB4-His ectodomains; commercially available human EphrinB1-Fc (EB1), EphrinB2-Fc (EB2), and EphrinB3-Fc (EB3) ectodomain proteins; purchased
T3 sequence (P29323 19-543 limits assumed): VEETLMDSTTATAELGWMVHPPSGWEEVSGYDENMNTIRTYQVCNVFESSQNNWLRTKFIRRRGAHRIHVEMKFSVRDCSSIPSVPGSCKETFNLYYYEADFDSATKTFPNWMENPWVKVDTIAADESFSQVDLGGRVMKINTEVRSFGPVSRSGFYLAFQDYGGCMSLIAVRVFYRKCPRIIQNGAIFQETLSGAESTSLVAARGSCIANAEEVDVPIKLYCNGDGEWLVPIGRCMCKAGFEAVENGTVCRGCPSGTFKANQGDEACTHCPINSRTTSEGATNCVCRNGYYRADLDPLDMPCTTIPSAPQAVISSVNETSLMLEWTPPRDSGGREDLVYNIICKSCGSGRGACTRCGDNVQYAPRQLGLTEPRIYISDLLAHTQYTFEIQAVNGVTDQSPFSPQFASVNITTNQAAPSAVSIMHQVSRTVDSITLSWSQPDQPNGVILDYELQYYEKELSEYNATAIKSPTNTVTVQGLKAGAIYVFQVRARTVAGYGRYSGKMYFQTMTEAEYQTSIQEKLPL

human EphrinB1 = experiment: Octet binding kinetics, EphB to immobilized human EphrinB1; settings: in parentheses R2 value
Procedure: Studies were conducted to confirm that A20 chemicals can effectively target the human Eph/Ephrin proteins. Octet system was used to first characterize the biophysical interactions of the human B class Eph and Ephrin proteins, and then was tested to assess how A20 may disrupt the interactions. Since the human and rodent proteins are highly conserved, and essentially identical, with EphB2 sharing 99.5% identity between human and mouse, with only 5 of ~1,000 amino acids different, any species-specific differences were not anticipated. Therefore, commercially available human EphrinB1-Fc (EB1), EphrinB2-Fc (EB2), and EphrinB3-Fc (EB3) ectodomain proteins were sparsely immobilized onto biosensors and then exposed to 50 nM of soluble human EphB1-His, EphB2-His, and EphB4-His ectodomains for 800 sec association and 1,000 sec dissociation steps with a total of nine different interactions analyzed. In the absence of A20 chemical, the immobilized human EphrinB proteins bound to their appropriate human EphB target proteins; with EphrinB1 only bound EphB1 and EphB2, EphrinB2 bound all three EphB1, EphB2, and EphB4, and EphrinB3 only bound EphB1 and EphB2 (FIG. 19A-19B). […]

Molecule: Oc1c(Br)cc(CN2CCOCC2)c2cccnc12 [Compound 6, 4-((7-bromo-8-hydroxyquinolin-1-ium-5-yl)methyl)morpholin-4-ium chloride]
- Absolute Association IC50 (EphA3-EphrinA1): 100 µM

Molecule: Oc1ccc(CN2CCN(Cc3ccc(C(F)(F)F)cc3)CC2)c2cccnc12 [Compound 48, 5-((4-(4-(trifluoromethyl)benzyl)piperazin-1-yl)methyl)quinolin-8-ol]
- Absolute Association IC50 (EphB4-EphrinB2; mEphB4-mEphrinB2, 50 nM soluble mouse EphrinB2, association): 100 µM
- IC50 (EphB4-EphrinB2; mEphB4-mEphrinB2, 50 nM soluble mouse EphrinB2, dissociation, absolute): 10 µM

Molecule: EWLSPNLAPSVR [EWLS, reference compound]
- effect on EphrinB2-EphB2 interaction (EphrinB2-EphB2): no effect on the EphrinB2-EphB2 interaction

B1: EphB1: soluble human EphB1-His ectodomain (protein, UniProt P54762 18-540, looked up)
extracellular domain: MEETLMDTRTATAELGWTANPASGWEEVSGYDENLNTIRTYQVCNVFEPNQNNWLLTTFINRRGAHRIYTEMRFTVRDCSSLPNVPGSCKETFNLYYYETDSVIATKKSAFWSEAPYLKVDTIAADESFSQVDFGGRLMKVNTEVRSFGPLTRNGFYLAFQDYGACMSLLSVRVFFKKCPSIVQNFAVFPETMTGAESTSLVIARGTCIPNAEEVDVPIKLYCNGDGEWMVPIGRCTCKPGYEPENSVACKACPAGTFKASQEAEGCSHCPSNSRSPAEASPICTCRTGYYRADFDPPEVACTSVPSGPRNVISIVNETSIILEWHPPRETGGRDDVTYNIICKKCRADRRSCSRCDDNVEFVPRQLGLTECRVSISSLWAHTPYTFDIQAINGVSSKSPFPPQHVSVNITTNQAAPSTVPIMHQVSATMRSITLSWPQPEQPNGIILDYEIRYYEKEHNEFNSSMARSQTNTARIDGLRPGMVYVVQVRARTVAGYGKFSGKMCFQTLTDDDYKSELREQLP
modifications: extracellular domain His tag
notes: soluble human EphB1-His ectodomain
- Kd (human EphrinB1): 0.0114 nM
